PubChem BioAssay AID652259, Drosophila RNAi Screening Center – 2013
Screen: 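Genome-wide hunt for genes that control Wingless pathway activity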 (primary screen). Cell system: Drosophila clone 8 imaginal disc epithelial cells. Reagent: long dsRNA against Drosophila genes. Challenge: pathway stimulated by co-transfected Wingless expression plasmid. Measurement: 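Dual luciferase reads per well after Wingless plasmid stimulation: reporter firefly light and Renilla control light; activity is firefly divided by Renilla, a ratio not deposited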. Reading the numbers: firefly reporter light: higher = more Wg reporter light, before normalisation; Renilla control light: higher = more transfected or surviving cells. Active means: 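a knock-down is a candidate when at least two out of four statistical tests show it departing from its plate mean; one test alone signals a weak candidate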. Meaning of the calls: active = candidate regulator (raises or lowers reporter); inactive = not a candidate.
The deposit covers about 22,000 reagents; this is an unselected part of those that have a named target and a result. Of all reagents, 233 (1.1%) were called active. 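Light values are raw, unnormalised plate reads; the ratio scores behind the reporter calls were not deposited.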 Entries without a mark were called inactive. Not stated in the record: the amount of reagent, the time to read-out, the dose of the treatment.

Gene | DRSC id | reporter change call, replicate 1 | firefly reporter light, replicate 1 | firefly reporter light, replicate 2 | Renilla control light, replicate 1 | Renilla control light, replicate 2
Elovl7 | DRSC15452 | – | 18848 | – | 4544 | –
Elovl7 | DRSC21570 | – | 2.05e5 | 2.66e5 | 1.95e5 | 1.50e5
Dus1 | DRSC00623 | – | 1564 | 6448 | 588 | 2472
CG33012 | DRSC06287 | – | 4154 | – | 2101 | –
CG33012 | DRSC06288 | – | 8017 | – | 4011 | –
ens | DRSC08454 | – | 5240 | – | 2706 | –
CG9757 | DRSC16557 | – | 24105 | – | 5360 | –
CG9757 | DRSC21707 | – | 8.71e5 | 8.68e5 | 4.15e5 | 4.21e5
CG10958 | DRSC17768 | – | 3296 | 6746 | 1108 | 1687
Obp49a | DRSC22562 | – | 6.83e5 | 7.60e5 | 2.78e5 | 2.64e5
lncRNA:CR32835 | DRSC22693 | – | 8.87e5 | 8.72e5 | 4.34e5 | 1.55e5
CG12519 | DRSC10311 | – | 12698 | – | 4209 | –
CG12519 | DRSC21549 | – | 3.85e5 | 4.36e5 | 97310 | 94870
gt | DRSC18782 | Wg reporter activity raised (active) | 47265 | – | 5244 | –
CG3226 | DRSC18296 | – | 3654 | 10963 | 1129 | 4115
CG30187 | DRSC22461 | – | 3.68e5 | 4.59e5 | 1.21e5 | 80672
Gr8a | DRSC18043 | – | 15490 | – | 7682 | –
Cpr65Eb | DRSC11026 | – | 2535 | 7916 | 1572 | 2902
nej | DRSC18006 | – | 31787 | – | 5520 | –
nej | DRSC18801 | Wg reporter activity raised (active) | 9490 | 22637 | 483 | 1296
CG13838 | DRSC14688 | – | 28775 | – | 21725 | –
sim | DRSC17054 | – | 10481 | – | 3441 | –
CG13713 | DRSC08322 | – | 1210 | 8708 | 760 | 3451
lig | DRSC07246 | – | 9005 | – | 1206 | –
lig | DRSC07247 | – | 3360 | 6546 | 816 | 2941
CG32199 | DRSC09990 | – | 6422 | – | 2373 | –
CG2656 | DRSC12584 | – | 8272 | – | 3028 | –
CG7600 | DRSC09681 | – | 12688 | – | 4467 | –
NKCC | DRSC12140 | – | 7015 | – | 2345 | –
NKCC | DRSC12311 | – | 11288 | – | 3146 | –
CG4928 | DRSC19342 | – | 2071 | 4577 | 681 | 1581
CG4935 | DRSC01924 | – | 2689 | 3776 | 1072 | 1924
Sox100B | DRSC15090 | – | 8297 | – | 3613 | –
Sox100B | DRSC16866 | – | 8041 | – | 3153 | –
dup | DRSC07088 | – | 4128 | – | 699 | –
CG18367 | DRSC06545 | – | 9856 | 9.12e5 | 3524 | 4.16e5
Ppcs | DRSC14127 | – | 2044 | 6665 | 673 | 2275
Flo1 | DRSC07427 | – | 14055 | – | 3264 | –
Glys | DRSC16130 | – | 5241 | – | 2475 | –
CG10931 | DRSC06015 | – | 7859 | – | 1976 | –
CG10621 | DRSC02078 | – | 3280 | 3780 | 441 | 1739
Sptr | DRSC18719 | – | 2371 | 5213 | 795 | 1881
lectin-21Ca | DRSC00541 | – | 1987 | 6096 | 1062 | 2098
alpha-Est9 | DRSC12621 | – | 16732 | – | 3524 | –
CG13358 | DRSC18534 | – | 21898 | – | 11840 | –
Stoml2 | DRSC04326 | – | 14185 | – | 4372 | –
Uxt | DRSC01962 | – | 3488 | 5969 | 1120 | 2960
Nop56 | DRSC14699 | – | 2275 | 3913 | 743 | 1062
CG11404 | DRSC11656 | – | 17492 | – | 5936 | –
alpha-Est7 | DRSC12619 | – | 2480 | – | 1280 | –
ath | DRSC02788 | – | 2185 | 3894 | 1209 | 2025
vex | DRSC19481 | – | 23457 | – | 10821 | –
vex | DRSC19651 | – | 23741 | – | 11769 | –
vex | DRSC21843 | – | 4.56e5 | 4.61e5 | 1.73e5 | 1.96e5
unc-4 | DRSC20381 | – | 25905 | – | 10186 | –
unc-4 | DRSC22074 | – | 8.01e5 | 8.08e5 | 3.39e5 | 4.03e5
CG14440 | DRSC17933 | – | 18114 | – | 5194 | –
myd | DRSC14762 | Wg reporter activity raised (active) | 4189 | 6152 | 345 | 736
myd | DRSC15512 | – | 14112 | – | 1469 | –
CG31680 | DRSC21878 | – | 5.13e5 | 5.04e5 | 1.96e5 | 2.24e5
CG5116 | DRSC15720 | – | 3931 | – | 1328 | –
RpS23 | DRSC07169 | – | 9837 | – | 3596 | –
CG15357 | DRSC00387 | – | 3984 | 5766 | 1241 | 2492
ds | DRSC00815 | – | 1892 | 7314 | 688 | 2204
Tango1 | DRSC02127 | – | 5680 | – | 3685 | –
CG10359 | DRSC08156 | – | 4021 | – | 2001 | –
GluRIIC | DRSC00642 | – | 5475 | – | 2649 | –
grn | DRSC12666 | – | 2765 | – | 525 | –
grn | DRSC16961 | – | 20212 | – | 5217 | –
eIF4E3 | DRSC10952 | – | 5867 | – | 2196 | –
BNIP3 | DRSC11761 | – | 11805 | – | 3338 | –
CG16837 | DRSC04283 | – | 3367 | 5900 | 960 | 1938
CG12194 | DRSC00345 | – | 2108 | 6672 | 976 | 2224

Hits (from the list above):
Gene | DRSC id | reporter change call, replicate 1 | firefly reporter light, replicate 1 | firefly reporter light, replicate 2 | Renilla control light, replicate 1 | Renilla control light, replicate 2
gt | DRSC18782 | Wg reporter activity raised (active) | 47265 | – | 5244 | –
nej | DRSC18801 | Wg reporter activity raised (active) | 9490 | 22637 | 483 | 1296
myd | DRSC14762 | Wg reporter activity raised (active) | 4189 | 6152 | 345 | 736
